Source: PMC7819943, “Rice protein-binding microarrays: a tool to detect cis-acting elements near promoter regions in rice”
The other results are listed elsewhere or left out.

Amino acid sequences for entries named in this document (tags omitted).
UniProt Q0JBA9, entry or part of it: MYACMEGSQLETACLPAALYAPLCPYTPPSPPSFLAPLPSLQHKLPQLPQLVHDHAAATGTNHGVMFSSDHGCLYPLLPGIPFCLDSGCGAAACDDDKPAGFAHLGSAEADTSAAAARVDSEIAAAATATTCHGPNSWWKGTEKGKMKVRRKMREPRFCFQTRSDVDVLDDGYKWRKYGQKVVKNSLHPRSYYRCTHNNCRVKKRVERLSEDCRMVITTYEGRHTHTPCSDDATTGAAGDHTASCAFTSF

These sequences were tested against OsWRKY34 (Oryza sativa, UniProt Q0JBA9 1-250) (assay: protein-binding microarray (RPBM); PBS, 2% BSA, 51.3 ng/ul salmon testes DNA, 50 uM zinc acetate, 200 nM TF, 25 C, 1 h; high values mean tight binding). Settings: protein: recombinant; tags: N-terminal polyhistidine and DsRed monomer fusion (pET32a); label: CyDye5-dUTP incorporated in the synthesized complementary strand; 3' TTTTT single-stranded linker to array surface; dsDNA, one strand shown.
How it was run: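 Binding signal here means per-feature fluorescence intensity in arbitrary units. The values were read on an Axon 4000B scanner after a custom Agilent array, double-stranded by primer extension with Cy5-dUTP, was incubated with 200 nM protein at 25 °C for 1 h in PBS with 2% BSA, salmon testes DNA and 50 µM zinc acetate, then washed. The proteins were transcription factors with an N-terminal polyhistidine tag and DsRed, expressed in E. coli BL21-CodonPlus and purified on Ni–NTA.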

Row | Sequence | binding signal
1 | GCCCAGTCCAATCTATCATCAGATTCCTTTTATACAATATCGGAGTCACCTAGTGCAG | 8040 fluorescence intensity (a.u.)
2 | AACACAGCCTAAATCTATCTTCTTTTTTTTAATTACTATTCGGAGTCACCTAGTGCAG | 9840 fluorescence intensity (a.u.)
3 | CCGTGCCGCCGCCGGCGACCGTCGTCCGTCGCTCACGCTGCGGAGTCACCTAGTGCAG | 8580 fluorescence intensity (a.u.)
4 | GTCTCATGTCACACTCACGTAGCTATATTTTTTATATTATCGGAGTCACCTAGTGCAG | 9120 fluorescence intensity (a.u.)
5 | CGTACTATAATTTTGTCATTCCTGTTGAAATTTTATAATTCGGAGTCACCTAGTGCAG | 9340 fluorescence intensity (a.u.)
6 | GATCCTTACCCGTTCCTCTTGACATCACCCGTTGCCGTTCCGGAGTCACCTAGTGCAG | 10800 fluorescence intensity (a.u.)
7 | GGGCAAGCTAGCCGGCGGGTGGGGATGAGGTCGCCGACAACGGAGTCACCTAGTGCAG | 10200 fluorescence intensity (a.u.)
8 | CTGTTCAGAGACCAGCCTTATCTCTCTTTCGTTTTCTCTCCGGAGTCACCTAGTGCAG | 9670 fluorescence intensity (a.u.)
9 | CATTCGCTTATTCCTCTATGTGTGCCACAATTCTCACAGCCGGAGTCACCTAGTGCAG | 12400 fluorescence intensity (a.u.)
10 | TAGAAGAGCGCGTTGACACCGTTGACTTTGGATTTTCCGTCGGAGTCACCTAGTGCAG | 18700 fluorescence intensity (a.u.)
11 | AGGGGTTGTAATTGGTTTAGAGGTGGAGGTAGATAAGAAACGGAGTCACCTAGTGCAG | 10100 fluorescence intensity (a.u.)
12 | AACACCGTCATGTTGCCTTCACAGAATAGGGTCAAGCCCCCGGAGTCACCTAGTGCAG | 8070 fluorescence intensity (a.u.)
13 | GATTGCAATTGATGATTATGTCCGTTATCAATTCCTACTCCGGAGTCACCTAGTGCAG | 8960 fluorescence intensity (a.u.)
14 | TCATTTCTGCATTATTGGGAGGGGCGGATCTACAGTGTTACGGAGTCACCTAGTGCAG | 15200 fluorescence intensity (a.u.)
15 | GGAGTTTGGTTGGTTGGTGGTGTTCTTGACGGGGCATGGACGGAGTCACCTAGTGCAG | 31200 fluorescence intensity (a.u.)
16 | AAACTCAACCAGCAGTCTCGTCTTAACCCCTAGCAGCTACCGGAGTCACCTAGTGCAG | 11600 fluorescence intensity (a.u.)
17 | GTCAAGTTCTATCCCTTGGGCATCAACAATATCTTATGACCGGAGTCACCTAGTGCAG | 8950 fluorescence intensity (a.u.)
18 | ACCTAAACCAATATAATTTCTTTGCTCTCGCTTGCATTTACGGAGTCACCTAGTGCAG | 8840 fluorescence intensity (a.u.)
19 | CAACGTTGACCCGGGTTGACCCACGGTTCTTCAACAAATGCGGAGTCACCTAGTGCAG | 20700 fluorescence intensity (a.u.)
20 | CACCGACCATTACAGTCTGCGCTTCCTTCTGGACCAACGTCGGAGTCACCTAGTGCAG | 12300 fluorescence intensity (a.u.)
21 | TGTGCCCGCTGCGCCAAGGGCTACGCCGTCCAGTCCGACTCGGAGTCACCTAGTGCAG | 48500 fluorescence intensity (a.u.)
22 | ATAACTTCAGTTATTTTGGCAACCCTTTTTGTGTTCATTACGGAGTCACCTAGTGCAG | 10400 fluorescence intensity (a.u.)
23 | TCGGGGTTAAGGTTGAAAGATGATTGGCATGTGTATTTTTCGGAGTCACCTAGTGCAG | 12300 fluorescence intensity (a.u.)
24 | CAAACCAAGTCACGGTACACGCGTGGACCGCGCACAGATTCGGAGTCACCTAGTGCAG | 8420 fluorescence intensity (a.u.)
25 | ACATGTCCTCATTTGTTCGATTTAGCTCTACTGCCTTCTACGGAGTCACCTAGTGCAG | 9280 fluorescence intensity (a.u.)
26 | CCTCACCACGAATACGAAACTATATCAGTTCTGCTGCTTTCGGAGTCACCTAGTGCAG | 8580 fluorescence intensity (a.u.)
27 | CCTCCATCTTGGAGGTTGCAACTGGTTTATTATCTTTGTTCGGAGTCACCTAGTGCAG | 9240 fluorescence intensity (a.u.)

Some of the entries so far, in CSV form.
Row,Sequence,binding signal
1,GCCCAGTCCAATCTATCATCAGATTCCTTTTATACAATATCGGAGTCACCTAGTGCAG,8040 fluorescence intensity (a.u.)
3,CCGTGCCGCCGCCGGCGACCGTCGTCCGTCGCTCACGCTGCGGAGTCACCTAGTGCAG,8580 fluorescence intensity (a.u.)
4,GTCTCATGTCACACTCACGTAGCTATATTTTTTATATTATCGGAGTCACCTAGTGCAG,9120 fluorescence intensity (a.u.)
9,CATTCGCTTATTCCTCTATGTGTGCCACAATTCTCACAGCCGGAGTCACCTAGTGCAG,12400 fluorescence intensity (a.u.)
10,TAGAAGAGCGCGTTGACACCGTTGACTTTGGATTTTCCGTCGGAGTCACCTAGTGCAG,18700 fluorescence intensity (a.u.)
14,TCATTTCTGCATTATTGGGAGGGGCGGATCTACAGTGTTACGGAGTCACCTAGTGCAG,15200 fluorescence intensity (a.u.)
17,GTCAAGTTCTATCCCTTGGGCATCAACAATATCTTATGACCGGAGTCACCTAGTGCAG,8950 fluorescence intensity (a.u.)
18,ACCTAAACCAATATAATTTCTTTGCTCTCGCTTGCATTTACGGAGTCACCTAGTGCAG,8840 fluorescence intensity (a.u.)
21,TGTGCCCGCTGCGCCAAGGGCTACGCCGTCCAGTCCGACTCGGAGTCACCTAGTGCAG,48500 fluorescence intensity (a.u.)
25,ACATGTCCTCATTTGTTCGATTTAGCTCTACTGCCTTCTACGGAGTCACCTAGTGCAG,9280 fluorescence intensity (a.u.)

Next part.

Row | Sequence | binding signal
28 | GTCCGCAAGCTCCTATATAGTACTTCCATCTCATTTTGACCGGAGTCACCTAGTGCAG | 8030 fluorescence intensity (a.u.)
29 | CTGCTCACCACCATCACGCATTTTCTTTTACCGGCCGGATCGGAGTCACCTAGTGCAG | 10700 fluorescence intensity (a.u.)
30 | TGAAATGTATATCTAATCATTTATTGTTGTGCTTGTATCTCGGAGTCACCTAGTGCAG | 9180 fluorescence intensity (a.u.)
31 | TTTAGCAATAATCGTGTCCTCGCAGCGAAGCAATTGCCCACGGAGTCACCTAGTGCAG | 8260 fluorescence intensity (a.u.)
32 | GCTCTTGGAGATGCTCTTAATTTGTGCTAACAATCCTGATCGGAGTCACCTAGTGCAG | 8250 fluorescence intensity (a.u.)
33 | TTTTTTTCTTGGTATATATCAAATTTGGGTTAACCGGCCTCGGAGTCACCTAGTGCAG | 8590 fluorescence intensity (a.u.)
34 | TAGCGATCGCATTTTGGGCCAGATTTGGGTTAGTATGTTTCGGAGTCACCTAGTGCAG | 9480 fluorescence intensity (a.u.)
35 | CGGATTTTTTTGCACGAACACGCCAGCACTAATCTTGAGGCGGAGTCACCTAGTGCAG | 8290 fluorescence intensity (a.u.)
36 | TCTACCAAGGGATTCTTGTATTTCGTTGCTCACATCCATCCGGAGTCACCTAGTGCAG | 9360 fluorescence intensity (a.u.)
37 | TTTTTTTGTAACATACACATTTACTTCTCTTAGCCAAGGCCGGAGTCACCTAGTGCAG | 8120 fluorescence intensity (a.u.)
38 | CGCGTGCACGTTTTTCAATCTGTTAAATGGTGTGTTTTTTCGGAGTCACCTAGTGCAG | 8090 fluorescence intensity (a.u.)
39 | CGACTTTGTTTTACCATTGTTTTTTTTGTCTTGTTTTAGTCGGAGTCACCTAGTGCAG | 10600 fluorescence intensity (a.u.)
40 | CCACCCACTTGATCGTCTTCATAAGACAGTTTTTACTAATCGGAGTCACCTAGTGCAG | 8570 fluorescence intensity (a.u.)
41 | AGCTGGTGCGCAACGTTGCACTTTTCCCAGTCCTTCGCATCGGAGTCACCTAGTGCAG | 8550 fluorescence intensity (a.u.)
42 | ATGAAGATTGGGAGGTCGAGTTTGGCCCGCATAGGTTCTCCGGAGTCACCTAGTGCAG | 8150 fluorescence intensity (a.u.)
43 | ATTTGACGCCGTTACTTTTTTTAAAAATGTTTGGCCGTTCCGGAGTCACCTAGTGCAG | 8270 fluorescence intensity (a.u.)
44 | GTTAATTGTCATCGATTTCCCGATTCTTTTGTCAAATTTACGGAGTCACCTAGTGCAG | 9640 fluorescence intensity (a.u.)
45 | TGGTGGAGAAGCTAATGAAGAGGGTGTTTTGTTGACTATGCGGAGTCACCTAGTGCAG | 8500 fluorescence intensity (a.u.)
46 | ATTAACTGGTACCTCATCGATTGAACATATATATGCATTACGGAGTCACCTAGTGCAG | 8820 fluorescence intensity (a.u.)
47 | TCGCCGGCACCGTTGACAGTTGACACCTTTCGGCCAGCCGCGGAGTCACCTAGTGCAG | 9050 fluorescence intensity (a.u.)
48 | ATGTCAGCCGCATCCGACCCAAAGGGCCTAAATTTCCGATCGGAGTCACCTAGTGCAG | 8490 fluorescence intensity (a.u.)
49 | GCCCTGACCGCGTCCGTCCCTCCACCGCATGACATCTCGGCGGAGTCACCTAGTGCAG | 8340 fluorescence intensity (a.u.)
50 | GCCCGGCCCATCACCGTCACCCTCCCTCGTGTCCTCTTCACGGAGTCACCTAGTGCAG | 8190 fluorescence intensity (a.u.)
51 | ACACTACTCCGTTCGTTTATTTTGACGTCATCGTATCTAACGGAGTCACCTAGTGCAG | 8700 fluorescence intensity (a.u.)
52 | TTCACTCGTTGGTCAACTTCAACATTTGTTTCACTCGTTGCGGAGTCACCTAGTGCAG | 9290 fluorescence intensity (a.u.)
53 | CTTTCTTTGCGGGGAGTTTATAGTTTGGATTGAGGCGGTACGGAGTCACCTAGTGCAG | 9230 fluorescence intensity (a.u.)
54 | GGCGGCATCTCGCTCTACCGCGGGTGGGGCTTCGACTCCGCGGAGTCACCTAGTGCAG | 12100 fluorescence intensity (a.u.)
